Results are given in words; binding and its absence hold for the method and conditions named. Binding seen in cells or lysates may run through a third protein. Some entries that bind do so weakly or less than the wild type.
Legend:
[1] = target: active NOTCH1 intracellular domain (N1-ICD) (human (endogenous in primary CLL cells)) (UniProt P46531); experiment: co-IP; N1-ICD immunoprecipitated from whole-cell lysates (4 mg) of primary CLL cells with anti-NOTCH1 (Val1744, clone D3B8), 4 °C overnight, Protein A/G Plus Agarose; washed six times in 10 mM Tris-HCl pH 7.5, 150 mM NaCl, 5 mM EGTA, 0.1% IGEPAL CA-630; blot with anti-GSK3β (clone 3D10); normal rabbit IgG as negative control; n = 3
[2] = target: active NOTCH1 intracellular domain (N1-ICD) (human (endogenous in primary CLL cells)) (UniProt P46531); experiment: proximity ligation; Duolink PLA on fixed, permeabilised primary CLL cells with rabbit anti-NOTCH1 (Val1744, clone D3B8) and mouse anti-GSK3β (clone 3D10); cells cultured 1.5 h with DMSO or 5 µM SB216763 (SB216763 decreased the PLA signals); n = 3

Chains of the proteins cited; added tags and fusions are not shown. Residues count along the entry.
UniProt P46531, residues 1754-2555: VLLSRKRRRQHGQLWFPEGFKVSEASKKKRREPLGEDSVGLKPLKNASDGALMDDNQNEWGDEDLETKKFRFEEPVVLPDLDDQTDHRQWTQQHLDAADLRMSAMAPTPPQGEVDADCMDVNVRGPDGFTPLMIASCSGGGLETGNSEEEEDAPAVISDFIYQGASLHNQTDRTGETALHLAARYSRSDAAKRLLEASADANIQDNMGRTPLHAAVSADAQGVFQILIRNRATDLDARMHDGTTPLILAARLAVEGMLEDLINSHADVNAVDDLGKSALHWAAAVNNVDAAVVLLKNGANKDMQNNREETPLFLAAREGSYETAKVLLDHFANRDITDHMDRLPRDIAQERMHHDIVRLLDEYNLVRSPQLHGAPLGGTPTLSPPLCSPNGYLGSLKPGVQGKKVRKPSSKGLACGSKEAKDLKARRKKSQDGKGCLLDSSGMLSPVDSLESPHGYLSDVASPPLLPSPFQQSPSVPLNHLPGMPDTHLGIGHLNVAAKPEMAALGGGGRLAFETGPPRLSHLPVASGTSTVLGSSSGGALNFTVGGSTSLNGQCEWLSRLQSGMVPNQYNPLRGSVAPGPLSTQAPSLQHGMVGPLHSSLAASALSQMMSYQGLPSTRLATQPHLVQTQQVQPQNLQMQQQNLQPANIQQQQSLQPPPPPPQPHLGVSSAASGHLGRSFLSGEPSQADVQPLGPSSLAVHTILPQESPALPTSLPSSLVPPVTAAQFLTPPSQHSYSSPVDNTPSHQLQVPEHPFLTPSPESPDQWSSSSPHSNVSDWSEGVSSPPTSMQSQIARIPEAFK
UniProt P49841: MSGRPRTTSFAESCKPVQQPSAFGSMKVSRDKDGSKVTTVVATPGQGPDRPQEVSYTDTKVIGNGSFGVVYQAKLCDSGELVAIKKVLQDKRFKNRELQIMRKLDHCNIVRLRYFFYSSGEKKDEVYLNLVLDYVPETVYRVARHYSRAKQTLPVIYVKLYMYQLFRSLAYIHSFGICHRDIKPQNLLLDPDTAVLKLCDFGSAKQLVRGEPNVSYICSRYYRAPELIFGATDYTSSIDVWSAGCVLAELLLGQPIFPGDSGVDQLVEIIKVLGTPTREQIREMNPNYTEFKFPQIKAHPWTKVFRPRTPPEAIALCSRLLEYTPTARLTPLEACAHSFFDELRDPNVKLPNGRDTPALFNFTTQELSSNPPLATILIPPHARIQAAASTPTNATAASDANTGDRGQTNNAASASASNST

## GSK3β (from UniProt P49841 1-420) (enzyme)
[1]
  binding: binds
[2]
  binding: binds

— paper PMC9436923
